The record followed here is PubChem BioAssay AID248 (DTP/NCI, 2004).

The list is a part of this screen's results and no random one: it gathers tests that were run many times, whatever their T/C, doses with no T/C, and many T/C values between a quarter and a half above the control. Further doses and runs are listed elsewhere. T/C is the treated group as % of the vehicle group. Some doses have a count of surviving animals in place of a T/C: the source holds a T/C of zero for them, seemingly a mark for toxic or unscored doses. Some survivor counts are full or nearly so, which does not show that the dose was tolerated: survival well below the control is almost never listed, so the zero probably covers shortened survival too. Counts of survivors are from the toxicity check (mostly the fifth day) where no day follows; animals may have died later. Schedule codes are those of the source, taken here to give the interval after Q, in days (D) or hours (H), and the number of doses after X. Some doses were run more than once; their values stand side by side, smallest first. Some schedules carry Z or #; the key to these is not given. For survival time, the PubChem record calls one and a half times the control and up active, and a quarter to a half above the control has no call in these data; cut-offs in other NCI protocols can differ. Some T/C values are followed by the survivors on the day toxicity was checked, most often the fifth; where none is given, no animal had died by that day.

The subject of the assay is L1210 leukemia ip in BDF1 mice, survival T/C. The assay is described as follows: NCI In Vivo Anticancer Drug Screen. Data for tumor model L1210 Leukemia (intraperitoneal) in B6D2F1 (BDF1) mice. The following applies: T/C endpoint: mean survival time, higher T/C = longer survival.
[1] abbreviates: dose: 300.0 mg/kg/injection, schedule: Q01DX001 (ip), vehicle: saline.
Where [2] appears, read: dose: 400.0 mg/kg/injection, schedule: Q01DX001 (ip), vehicle: saline.
[3] abbreviates: dose: 400.0 mg/kg/injection, schedule: Q04DX003 (ip), vehicle: Klucel (hydroxypropylcellulose) (HPC).
The mark [4] stands for this setting: dose: 200.0 mg/kg/injection, schedule: Q04DX003 (ip), vehicle: saline.
[5] abbreviates: dose: 400.0 mg/kg/injection, schedule: Q04DX003 (ip), vehicle: saline.
Where [6] appears, read: dose: 400.0 mg/kg/injection, schedule: Q01DX009 (ip), vehicle: saline.
[7] abbreviates: dose: 200.0 mg/kg/injection, schedule: Q01DX001 (ip), vehicle: carboxymethylcellulose (CMC).
Where [8] appears, read: dose: 400.0 mg/kg/injection, schedule: Q01DX001 (ip), vehicle: carboxymethylcellulose (CMC).
[9] abbreviates: dose: 50.0 mg/kg/injection, schedule: Q01DX009 (ip), vehicle: saline with Tween-80.
Where [10] appears, read: dose: 100.0 mg/kg/injection, schedule: Q01DX009 (ip), vehicle: saline with Tween-80.
[11] abbreviates: dose: 200.0 mg/kg/injection, schedule: Q01DX009 (ip), vehicle: saline with Tween-80.
Setting [12] is: dose: 200.0 mg/kg/injection, schedule: Q01DX009 (ip), vehicle: saline.

Regarding `CCN(CC)CCN(C)C(=O)C(=O)c1ccccc1`, the survivor count under setting [1] is reported as 2 of 6.
Regarding `C=CCN(CC=C)c1ncnc2[nH]ncc12`, the survivor count is, setting by setting: (dose: 250.0 mg/kg/injection, schedule: Q01DX015 (ip), vehicle: carboxymethylcellulose (CMC)) 0 of 6; (dose: 500.0 mg/kg/injection, schedule: Q01DX015 (ip), vehicle: carboxymethylcellulose (CMC)) 0 of 6.
For `CCOC(=O)c1occ(Cl)c1Cl`, the survivor count under setting [2] is given as 2 of 6.
Consider `CC1(C)CC(=O)C=C(NC2CCCCC2)C1`, for which the survivor count under setting [3] is 3 of 6.
For the compound `Cc1cc(C)[n+]([O-])c(C)c1[N+](=O)[O-]`, under setting [2], the survivor count is on record as 3 of 6.
For the compound `CCCCCCCCCCCCCCCCCCOC(=O)C(C(C)=O)C(c1cccc([N+](=O)[O-])c1)C(C(C)=O)C(=O)O` (configuration not stated), the survivor count (dose: 200.0 mg/kg/injection, schedule: Q04DX003 (ip), vehicle: saline with Tween-80) was 6 of 6.
Take `ClC1OCCOC1Cl` (configuration not stated): the survivor count is reported as 2 of 5 under setting [4] and 0 of 6 under setting [5].
As to `CS(=O)(=O)OCC(=O)NCCCNC(=O)COS(C)(=O)=O`, the T/C is, setting by setting: (dose: 9.4 mg/kg/injection, schedule: Q01DX015 (ip), vehicle: saline) 125 % of control; (dose: 37.5 mg/kg/injection, schedule: Q01DX015 (ip), vehicle: saline) 142 % of control; (dose: 256.0 mg/kg/injection, schedule: Q01DX009 (ip), vehicle: saline) 142 % of control [5 of 6 alive]. Besides, the survivor count runs as follows: under setting [6], 3 of 6; (dose: 600.0 mg/kg/injection, schedule: Q01DX009 (ip), vehicle: saline) 1 of 6.
With `COc1ccc(-c2sc(/N=C/c3cc(OC)c(OC)c(OC)c3)c(C#N)c2C)cc1OC`, the survivor count (dose: 200.0 mg/kg/injection, schedule: Q04DX002 (ip), vehicle: saline with Tween-80) was 3 of 3.
`CC(C)C(C)(O)C#N` (configuration not stated): the survivor count (dose: 40.0 mg/kg/injection, schedule: Q01DX001 (ip), vehicle: saline) is given as 1 of 4; the survivor count (dose: 80.0 mg/kg/injection, schedule: Q01DX001 (ip), vehicle: saline) was 0 of 4; the survivor count (dose: 100.0 mg/kg/injection, schedule: Q01DX001 (ip), vehicle: saline) was 0 of 4; the survivor count (dose: 200.0 mg/kg/injection, schedule: Q01DX001 (ip), vehicle: saline) is on record as 0 of 4; the survivor count under setting [2] is reported as 0 of 4.
For the compound `S=C(NCc1ccccc1)NCc1ccccc1`, the survivor count reads like this: (dose: 200.0 mg/kg/injection, schedule: Q04DX002 (ip), vehicle: Klucel (hydroxypropylcellulose) (HPC)) 3 of 3; (dose: 400.0 mg/kg/injection, schedule: Q04DX002 (ip), vehicle: Klucel (hydroxypropylcellulose) (HPC)) 2 of 3.
For `c1ccc2c(c1)ccc1[s+]cccc12`, the survivor count (dose: 400.0 mg/kg/injection, schedule: Q04DX003 (ip), vehicle: acetone) was 0 of 6.
Take `Cc1n(Cc2ccc(Cl)cc2Cl)cc[n+]1Cc1ccccc1`: the survivor count is 1 of 6 (dose: 100.0 mg/kg/injection, schedule: Q04DX003 (ip), vehicle: Klucel (hydroxypropylcellulose) (HPC)); 0 of 6 (dose: 200.0 mg/kg/injection, schedule: Q04DX003 (ip), vehicle: Klucel (hydroxypropylcellulose) (HPC)); 0 of 6 under setting [3].
In the case of `C[N+](C)(C)Cc1c(CC(O)(c2ccccc2)c2ccccc2)ccc2ccccc12`, the survivor count runs as follows: under setting [7], 2 of 4; under setting [8], 2 of 4.
In the case of `CN1CC(N(C)C)CCC/C=C\C1=O` (configuration not stated), the survivor count runs as follows: (dose: 150.0 mg/kg/injection, schedule: Q01DX001 (ip), vehicle: saline) 1 of 6; under setting [1], 0 of 6.
In the case of `O=C1CNC(=O)N1CCCl`, the survivor count under setting [4] is reported as 6 of 6.
`COc1ccc(/C=N/NC(=O)CNC(=O)c2ccc(Cl)c(Cl)c2)cc1`: the survivor count reads like this: (dose: 25.0 mg/kg/injection, schedule: Q01DX009 (ip), vehicle: saline with Tween-80) 3 of 3; under setting [9], 2 of 3 and 3 of 3; under setting [10], 3 of 3; under setting [11], 3 of 3.
Take `NC(N)=N/N=C/c1ccc(O)c(C(=O)O)c1`: the survivor count was 2 of 6 (dose: 125.0 mg/kg/injection, schedule: Q01DX Z (oral), vehicle: methylcellulose (MC)); 5 of 6 (dose: 240.0 mg/kg/injection, schedule: Q01DX Z (oral), vehicle: methylcellulose (MC)); 5 of 6 (dose: 250.0 mg/kg/injection, schedule: Q01DX Z (ip), vehicle: methylcellulose (MC)); 1 of 6 (dose: 375.0 mg/kg/injection, schedule: Q01DX Z (ip), vehicle: methylcellulose (MC)); 0 of 6 (dose: 500.0 mg/kg/injection, schedule: Q01DX Z (ip), vehicle: methylcellulose (MC)); 0 of 6 (dose: 500.0 mg/kg/injection, schedule: Q01DX Z (oral), vehicle: methylcellulose (MC)). The survivor count (dose: 1000.0 mg/kg/injection, schedule: Q01DX Z (oral), vehicle: methylcellulose (MC)) was 0 of 6.
Regarding `COc1ccc(CCNCC(O)CSc2cccc(C)c2)cc1OC` (configuration not stated), the survivor count under setting [1] is recorded as 0 of 6.
For the compound `Oc1ccc(C(O)(c2ccccc2)c2ccc(O)c3ccccc23)c2ccccc12`, the survivor count (dose: 400.0 mg/kg/injection, schedule: Q01DX009 (ip), vehicle: saline with Tween-80) is listed as 2 of 6.
Turning to `O=C(CCl)COP(=O)(O)O`, the survivor count runs as follows: (dose: 100.0 mg/kg/injection, schedule: Q01DX009 (ip), vehicle: other) 0 of 6; (dose: 200.0 mg/kg/injection, schedule: Q01DX001 (ip), vehicle: other) 1 of 6; (dose: 200.0 mg/kg/injection, schedule: Q04DX003 (ip), vehicle: other) 2 of 6.
As for `CC(C)N(C(C)C)S(C)(=O)=O`, the survivor count is, setting by setting: under setting [4], 6 of 6; under setting [5], 3 of 6.
In the case of `C1=NCCCN1`, the survivor count under setting [12] is listed as 5 of 6 and the survivor count under setting [5] is 2 of 6.
Take `O=C(O)/C=C/C(=O)c1ccccc1`: the survivor count is 0 of 3 under setting [9]; 2 of 4 (dose: 100.0 mg/kg/injection, schedule: Q01DX001 (ip), vehicle: carboxymethylcellulose (CMC)); 0 of 3 under setting [10]; 0 of 4 under setting [7]; 0 of 3 under setting [11]; 0 of 4 under setting [8].
`CC(=O)OCC1OC(n2cnc3c(=S)nc(N)[nH]c32)C(OC(C)=O)C1OC(C)=O` (configuration not stated): the T/C by setting is: (dose: 3.3 mg/kg/injection, schedule: Q01DX Z (ip), vehicle: carboxymethylcellulose (CMC)) 127 % of control; (dose: 100.0 mg/kg/injection, schedule: Q01DX015 (oral), vehicle: other) 143 % of control. For the same compound, the survivor count (dose: 88.0 mg/kg/injection, schedule: Q01DX Z (ip), vehicle: carboxymethylcellulose (CMC)) is listed as 6 of 6.
As to `CCC(C)C(CCN1CCCCC1)(CNC(=O)CN(CC)CC)c1cccc2ccccc12` (configuration not stated), the survivor count was 6 of 6 (dose: 50.0 mg/kg/injection, schedule: Q01DX009 (ip), vehicle: saline); 6 of 6 (dose: 100.0 mg/kg/injection, schedule: Q01DX009 (ip), vehicle: saline); 0 of 6 under setting [12]; 0 of 6 under setting [5].
`N#CC(c1ccc(N)cc1)c1ccc(F)cc1` (configuration not stated): the survivor count under setting [2] is on record as 1 of 4.
Take `NC(N)=NCCCCCC(=O)Oc1ccc([N+](=O)[O-])cc1`: the survivor count is 0 of 6 under setting [6] and 0 of 6 under setting [5].
